Measured data: PubChem BioAssay AID1224828 (NIAID, 2016)
Aim: 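Regulators linking TLR4 signalling to p65 nuclear translocation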 (primary screen). System: mouse RAW264.7 G9 macrophage reporter cells (GFP-p65, Tnf promoter-mCherry). Knock-down reagent: siRNA pool against mouse genes, 100 nM. Timing: 2 days siRNA transfection, then 40 min LPS before fixation. Treatment: LPS (Salmonella minnesota R595) at 10 ng/ml. Measured: 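Microscopy ratio of nuclear to perinuclear-ring GFP-p65 signal, scaled to the plate median; gene score is the average of two replicate robust z-scores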. Reading the numbers: p65 translocation robust z-score: higher = more nuclear NF-kappaB p65 after LPS than the plate median; nuclear/cytoplasmic p65 ratio: higher = more nuclear NF-kappaB p65. Hit rule: 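Active if robust z is above 3.3 (negative regulators) or below -1.56, the Tlr4 control median (positive regulators); activity score 50 or more; control wells not called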. Meaning of the calls: active = hit (p65 shift raised or lowered); inactive = no clear change.
In all, the deposit lists about 17,000 reagents; below is a part drawn at random. Of all reagents, 762 (4.5%) got an active call. 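Active calls include both raised and lowered p65 entry, mostly lowered; wells with fewer than 50 cells lack a z-score.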 Raw values are not corrected between plates. A number with no mark means an inactive call.

no.	gene symbol	p65 translocation robust z-score	nuclear/cytoplasmic p65 ratio, rep 1	nuclear/cytoplasmic p65 ratio, rep 2	low cell count flag
1	Psmc3		0	1.23	fewer than 50 cells per well; well left out of scoring
2	Slc25a14	-1.29	1.22	1.12	enough cells to score
3	Kif21a	-0.19	1.5	1.43	enough cells to score
4	Hes6	-0.73	1.3	1.32	enough cells to score
5	Gm2716		1.52	1.34	fewer than 50 cells per well; well left out of scoring
6	Catsper3	1.36	1.82	1.98	enough cells to score
7	Abcc1	-0.12	1.59	1.6	enough cells to score
8	Sfrp4	-0.77	1.35	1.53	enough cells to score
9	Gpm6a	1.01	1.75	1.73	enough cells to score
10	Coxfa4	-2.47 (active)	1.38	1.17	enough cells to score
11	Mob3c	0.59	1.8	1.75	enough cells to score
12	Mmp17	0.82	1.59	1.41	enough cells to score
13	Or2y1b	1.45	1.89	1.78	enough cells to score
14	Rab18	-0.68	1.45	1.39	enough cells to score
15	Kera	0	1.47	1.38	enough cells to score
16	Cyp2c54	-0.85	1.38	1.25	enough cells to score
17	Ttc4	0.7	1.55	1.65	enough cells to score
18	Dclre1c	-0.93	1.4	1.45	enough cells to score
19	Ankrd55		1.33	1.62	fewer than 50 cells per well; well left out of scoring
20	Itga4	-1.48	1.17	1.29	enough cells to score
21	Lancl1		1.54	1.81	fewer than 50 cells per well; well left out of scoring
22	Arhgef17	-0.14	1.58	1.62	enough cells to score
23	Abhd17c		1.28	1.06	fewer than 50 cells per well; well left out of scoring
24	Osbpl5	0.76	1.56	1.32	enough cells to score
25	Or6c214		1.3	1.03	fewer than 50 cells per well; well left out of scoring
26	Psmd8		1.53	1.59	fewer than 50 cells per well; well left out of scoring
27	Il1bos	-0.25	1.42	1.48	enough cells to score
28	Zfp503	0.21	1.52	1.27	enough cells to score
29	Ces2c	0.46	1.59	1.94	enough cells to score
30	Pdha1	1.12	1.54	1.61	enough cells to score
31	Cnksr3	0.89	1.89	1.64	enough cells to score
32	Cabp5	-2.42 (active)	1.23	1.33	enough cells to score
33	Esr2	1.62	1.71	1.55	enough cells to score
34	Trim33	0.52	1.72	1.45	enough cells to score
35	Ttll12	2.15	1.72	1.66	enough cells to score
36	Uchl4		1.44	1.25	fewer than 50 cells per well; well left out of scoring
37	Nnat	0.38	1.81	1.55	enough cells to score
38	Kcnn1	-2.19 (active)	1.23	1.06	enough cells to score
39	Elovl2	-0.85	1.34	1.27	enough cells to score
40	Ywhah		1.55	1.14	fewer than 50 cells per well; well left out of scoring
41	Rnf222	-0.25	1.41	1.49	enough cells to score
42	Or9g4	-0.64	1.56	1.48	enough cells to score
43	H2al2a	-0.18	1.37	1.4	enough cells to score
44	Peli3	-0.22	1.33	1.35	enough cells to score
45	Gabrd	1.5	1.63	1.57	enough cells to score
46	Tulp2	1.67	1.73	1.75	enough cells to score
47	Brdt	0.05	1.52	1.53	enough cells to score
48	Rpusd2		1.07	1.25	fewer than 50 cells per well; well left out of scoring
49	Psmb3		1.15	1.21	fewer than 50 cells per well; well left out of scoring
50	Dmd	0.9	1.73	1.38	enough cells to score
51	C2	-0.64	1.55	1.49	enough cells to score
52	Apol7c	1.19	1.6	1.37	enough cells to score
53	Lrrc9	1.83	1.59	1.52	enough cells to score
54	Sap30bp	-0.83	1.29	1.3	enough cells to score
55	Grm4	1.73	1.7	1.89	enough cells to score
56	Dipk1c	-0.42	1.47	1.52	enough cells to score
57	Vmn1r81		1.22	0.908	fewer than 50 cells per well; well left out of scoring
58	Gpr137	-0.06	1.47	1.6	enough cells to score
59	Cdkn2d	2.28	2.11	1.62	enough cells to score

Just “low cell count flag” (4 entries from above):
Gpm6a = enough cells to score
Coxfa4 = enough cells to score (active)
Mob3c = enough cells to score
Mmp17 = enough cells to score
